This note sets out measurements from the supplement of paper PMC11732987, “Enantioselective OTUD7B fragment discovery through chemoproteomics screening and high-throughput optimisation” (Communications Chemistry, 2025).

Protein sequences, listed by entry. Tags and fused reporters are not part of them. Lines headed by an entry give the natural chain unless they say otherwise; changes in a name come on top.
UniProt Q6PI48: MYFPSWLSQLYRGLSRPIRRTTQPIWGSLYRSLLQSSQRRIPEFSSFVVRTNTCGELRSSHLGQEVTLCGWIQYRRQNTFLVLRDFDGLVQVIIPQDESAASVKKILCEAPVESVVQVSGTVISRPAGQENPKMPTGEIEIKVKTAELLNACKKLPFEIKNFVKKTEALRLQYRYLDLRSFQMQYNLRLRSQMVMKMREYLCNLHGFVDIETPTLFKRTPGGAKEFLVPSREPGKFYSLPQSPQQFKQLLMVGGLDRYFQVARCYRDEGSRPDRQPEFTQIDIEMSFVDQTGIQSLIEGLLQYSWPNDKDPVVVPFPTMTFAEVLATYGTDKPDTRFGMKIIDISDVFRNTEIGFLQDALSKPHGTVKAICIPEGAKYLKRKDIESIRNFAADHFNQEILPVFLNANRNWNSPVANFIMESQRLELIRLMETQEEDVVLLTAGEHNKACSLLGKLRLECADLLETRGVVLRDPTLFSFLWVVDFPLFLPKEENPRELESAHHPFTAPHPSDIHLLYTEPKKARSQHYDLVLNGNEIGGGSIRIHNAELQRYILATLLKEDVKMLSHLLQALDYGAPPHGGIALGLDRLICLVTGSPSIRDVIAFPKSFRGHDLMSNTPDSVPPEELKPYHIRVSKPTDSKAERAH

The list shows a part of the results. The data scatter; read single values as rough.

In one assay the target is T1, DARS2 C108 (UniProt Q6PI48).
T1 sequence (whole entry): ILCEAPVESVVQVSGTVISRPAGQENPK
As to the kind of experiment: log2 mean competition ratio of IA-DTB cysteine labelling (DMSO/compound) (log2 ratio); higher = stronger cysteine engagement by compound. To be noted: 50 µM; treatment time: 4 h; cell line lysate: HEK293T. How it is done: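 IA-DTB competitive cysteine chemoproteomics in HEK293T RIPA lysate. Lysates were treated with compound 29 or 30 at 50 or 200 µM for 4 h, then IA-DTB (500 µM, 1 h), trypsin-digested, NeutrAvidin-enriched and analysed by diaPASEF. Competition ratio = intensity DMSO / intensity compound (n=4 treated, n=64 DMSO); binding: mean log2 CR ≥ 1 and p ≤ 0.05 plus QC filters. Target is the cysteine site.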
Turning to `O=C(CCl)N[C@H]1CCCc2ccccc21`, the “log2 mean competition ratio” value is -0.211.

With `O=C(CCl)N[C@@H]1CCCc2ccccc21`, the “log2 mean competition ratio” value is -0.0321.

The assay is the same for the next values; noted with them: 200 µM; treatment time: 4 h; cell line lysate: HEK293T.
In the case of `O=C(CCl)N[C@H]1CCCc2ccccc21`, the “log2 mean competition ratio” value was -0.464.

For the compound `O=C(CCl)N[C@@H]1CCCc2ccccc21`, the “log2 mean competition ratio” value was -0.0875.
